No constants are given. Whether binding was seen depends on the method and setting. Binding seen in cells or lysates may run through a third protein. These calls come from enrichment with a bait or labelling near it, and not all partners need be listed. For part of these data: A no says only that the protein was not detected with the bait.
How the values were obtained:
Experiment in all cases: affinity purification with mass spectrometry
Upf2-TAP (S. cerevisiae) = target: T1, Upf2-TAP (S. cerevisiae) (UniProt P38798)
T1 sequence: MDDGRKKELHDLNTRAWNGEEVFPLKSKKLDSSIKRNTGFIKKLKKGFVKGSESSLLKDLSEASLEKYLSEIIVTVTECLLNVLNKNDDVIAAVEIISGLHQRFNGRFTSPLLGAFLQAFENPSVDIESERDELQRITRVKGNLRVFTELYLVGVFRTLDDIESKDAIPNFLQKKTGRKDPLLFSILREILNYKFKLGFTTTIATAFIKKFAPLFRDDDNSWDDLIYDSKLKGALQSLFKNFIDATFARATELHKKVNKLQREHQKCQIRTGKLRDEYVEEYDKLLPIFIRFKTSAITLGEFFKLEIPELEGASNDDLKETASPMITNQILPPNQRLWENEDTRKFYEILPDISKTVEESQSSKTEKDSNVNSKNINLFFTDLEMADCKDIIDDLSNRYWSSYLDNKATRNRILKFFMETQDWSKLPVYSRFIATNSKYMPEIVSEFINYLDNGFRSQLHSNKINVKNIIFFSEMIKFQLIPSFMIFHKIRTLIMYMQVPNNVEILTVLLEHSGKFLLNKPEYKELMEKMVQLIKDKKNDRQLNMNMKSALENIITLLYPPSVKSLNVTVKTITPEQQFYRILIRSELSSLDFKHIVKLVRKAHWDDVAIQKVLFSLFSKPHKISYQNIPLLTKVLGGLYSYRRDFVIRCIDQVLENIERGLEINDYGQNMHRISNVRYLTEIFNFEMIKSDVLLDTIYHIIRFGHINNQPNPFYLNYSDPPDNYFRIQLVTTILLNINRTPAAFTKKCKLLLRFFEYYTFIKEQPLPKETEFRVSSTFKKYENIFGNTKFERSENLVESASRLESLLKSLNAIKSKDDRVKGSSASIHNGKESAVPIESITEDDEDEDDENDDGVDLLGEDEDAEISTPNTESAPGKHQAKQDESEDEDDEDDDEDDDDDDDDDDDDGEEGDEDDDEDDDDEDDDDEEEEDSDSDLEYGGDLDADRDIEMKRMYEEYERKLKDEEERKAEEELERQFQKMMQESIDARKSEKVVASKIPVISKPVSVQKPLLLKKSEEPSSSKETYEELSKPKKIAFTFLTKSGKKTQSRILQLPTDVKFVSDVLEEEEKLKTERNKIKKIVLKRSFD

[1] = target: T2, TAP-Upf1-FL (S. cerevisiae) (UniProt P30771)
T2 sequence: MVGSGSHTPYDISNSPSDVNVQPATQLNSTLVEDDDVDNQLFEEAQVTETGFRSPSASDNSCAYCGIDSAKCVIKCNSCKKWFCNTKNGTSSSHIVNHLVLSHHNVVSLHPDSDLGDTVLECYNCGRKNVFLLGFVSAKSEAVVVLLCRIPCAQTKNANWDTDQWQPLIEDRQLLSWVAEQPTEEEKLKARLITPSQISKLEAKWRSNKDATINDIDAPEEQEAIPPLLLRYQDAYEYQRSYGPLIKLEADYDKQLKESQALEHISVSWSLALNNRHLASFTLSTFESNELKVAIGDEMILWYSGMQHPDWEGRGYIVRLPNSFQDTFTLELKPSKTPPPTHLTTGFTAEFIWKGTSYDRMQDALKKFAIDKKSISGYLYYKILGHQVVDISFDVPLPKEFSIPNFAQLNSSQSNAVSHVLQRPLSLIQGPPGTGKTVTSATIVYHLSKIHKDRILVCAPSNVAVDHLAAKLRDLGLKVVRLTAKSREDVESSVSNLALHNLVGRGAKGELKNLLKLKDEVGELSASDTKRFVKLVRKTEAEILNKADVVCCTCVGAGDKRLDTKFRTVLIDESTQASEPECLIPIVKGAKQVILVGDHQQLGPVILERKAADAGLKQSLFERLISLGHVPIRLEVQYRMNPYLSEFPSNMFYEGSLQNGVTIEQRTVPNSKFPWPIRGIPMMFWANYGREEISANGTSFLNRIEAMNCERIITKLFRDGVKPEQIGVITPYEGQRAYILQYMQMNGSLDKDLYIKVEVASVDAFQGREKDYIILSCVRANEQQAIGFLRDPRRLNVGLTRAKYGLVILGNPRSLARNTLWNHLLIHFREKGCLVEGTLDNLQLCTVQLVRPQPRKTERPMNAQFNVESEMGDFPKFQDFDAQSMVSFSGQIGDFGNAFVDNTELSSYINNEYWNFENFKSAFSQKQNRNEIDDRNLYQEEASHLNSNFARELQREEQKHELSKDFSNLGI

Upf3-TAP (S. cerevisiae) = target: T3, Upf3-TAP (S. cerevisiae) (UniProt P48412)
T3 sequence: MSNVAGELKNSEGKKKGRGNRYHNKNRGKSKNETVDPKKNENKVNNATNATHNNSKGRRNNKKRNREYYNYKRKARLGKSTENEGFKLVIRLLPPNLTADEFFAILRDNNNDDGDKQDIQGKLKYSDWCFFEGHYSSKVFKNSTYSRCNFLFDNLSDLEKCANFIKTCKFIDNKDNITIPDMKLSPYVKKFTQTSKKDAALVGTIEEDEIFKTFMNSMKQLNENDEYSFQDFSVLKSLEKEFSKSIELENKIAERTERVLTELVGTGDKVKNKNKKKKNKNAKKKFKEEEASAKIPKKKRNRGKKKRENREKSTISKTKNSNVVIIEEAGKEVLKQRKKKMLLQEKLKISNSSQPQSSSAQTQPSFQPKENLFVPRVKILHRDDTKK

B1: Nmd4 (protein, UniProt Q12129 1-218)
chain: MTQYNFIIDASAFEKGLGNIKRWCSDCTEAVTLNFYIPTFTLNELDFLQQRRKSFAARESLKFIDRLDDSKFANLKVFIEFPEVLDIILWSDVMEHNDSSGKINIAKLPKRLKNLLKSCIYKCYLEGNEGLHWFLISEDPQIREMAMQCNIPSCSIVDVDSILSKDMNDKSFRESEKFNNMMLKNGTKEESENGREIIRTNFNKTVYASRGTGELWSP
- binding (Upf2-TAP (S. cerevisiae)): no binding
- binding [1]: binds
- binding (Upf3-TAP (S. cerevisiae)): no binding

B2: Ebs1 (protein, UniProt Q03466 1-884)
chain: MEPSNTQKEDLPTAFNGIKSQLNSILKSNQLFQDYALLNGFLAFVHSKLNAAILTSIESQCGKSFAADLDSFDQSSISSILDFSWESVHYPIFKWFQMWRNYILFEKENKKQQTKFIDFRKMNSKMLKFFKTVQNFYVNVINTVYKKYDISVLLPKRIIQDLKLSDIENTTNVGDILAVKTFNSSSPLAHLIPTLFHRCLLFLGTAYRYKTLLEEISNKYSISNFKKSLDFFRLASLVLPSAGETYSQAGAIFLQTGNLGIAVFNFVKGMMTKMPSPVSIKNFGALMVDNKSSLNRSLHTTIMNTYLQESKGPRTPAKEILEFYFLGLFGSVWSPTSWRDDTKPNQLNNGIKLRHLENALYETMSARYLNNIKTIFHNLIITIGGFHLLLKRRSDVSAKTLKDLRSNELDYLNFAFKYIAHILNDIVKESWSENPEVSEILGMVRIINCWIKANPMVLQYSQSNLEFVNALAYLINDIVKKKPSPSFSITEHIPKRTYWFEEDLMVKGLSFVNFQLSDFDDYEKILEMDHSLDRLIGNPPLCDKLSASSEMLLRLQAVVNISSQLLQNNNCGVEWSDNKSRYIFNKKIGFKETVKNSMKTSKQSNEKAKLQRKNKPSTTNGSISMADLERQMRSSSLDSFSPTMGYSGSSVPMAPDTFNVKPSGTITGNKVNVELLKIELSGQNADGAITNISPGYSNAAISSSNSTDESSFDLNNILSSMQQKHAEKSFAKSMQGVNEQIPANDVCHQAQRPMQGGLYSSQQPSSMSSLNSAYQNASMPPSASMVSYPYPFLNQQGQGVFPPYNAQNLQWQSEAYSLKSMNFANPTWLGDQYQTSAPSSAYAQAQRQMFQQPMQQDVGKYMQFPFDAQSNTDSMRGNSRNNMF
- binding (Upf2-TAP (S. cerevisiae)): no binding
- binding [1]: binds
- binding (Upf3-TAP (S. cerevisiae)): no binding
